## Assay results

By UniProt entry, the sequences of proteins in these tests, tags left out.
UniProt O94782, whole entry, looked up, target on record: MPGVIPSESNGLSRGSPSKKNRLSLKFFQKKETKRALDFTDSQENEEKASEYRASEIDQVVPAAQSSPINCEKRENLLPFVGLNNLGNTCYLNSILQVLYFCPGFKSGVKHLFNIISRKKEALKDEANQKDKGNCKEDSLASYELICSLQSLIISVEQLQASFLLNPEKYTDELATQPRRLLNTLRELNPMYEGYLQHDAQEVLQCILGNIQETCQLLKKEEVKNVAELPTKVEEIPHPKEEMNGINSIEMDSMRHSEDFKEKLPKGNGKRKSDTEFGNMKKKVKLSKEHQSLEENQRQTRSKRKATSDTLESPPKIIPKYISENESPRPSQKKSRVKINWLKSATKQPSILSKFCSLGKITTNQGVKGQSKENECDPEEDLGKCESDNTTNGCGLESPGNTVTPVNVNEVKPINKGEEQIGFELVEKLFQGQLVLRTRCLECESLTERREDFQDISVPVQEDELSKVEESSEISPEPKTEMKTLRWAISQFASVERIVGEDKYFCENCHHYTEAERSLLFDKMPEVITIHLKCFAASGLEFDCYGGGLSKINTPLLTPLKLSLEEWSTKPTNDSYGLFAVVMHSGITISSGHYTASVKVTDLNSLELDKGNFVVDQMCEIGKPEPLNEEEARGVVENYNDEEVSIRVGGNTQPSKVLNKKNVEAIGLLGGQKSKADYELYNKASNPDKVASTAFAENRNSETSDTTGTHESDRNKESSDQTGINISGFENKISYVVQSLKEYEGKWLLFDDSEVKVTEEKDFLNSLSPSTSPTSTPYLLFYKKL

Data taken from PubChem BioAssay AID504865, deposited by NCATS (2011).

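Purified human USP1/UAF1 enzyme complex; fluorescence from ubiquitin-rhodamine substrate cleavage, read kinetically six times at one-minute intervals after substrate addition.
Compounds were titrated over 13 concentrations from about 0.0037 µM up to roughly 110 µM, the top dose varying by compound.
The value is the fitted AC50 from the dose-response series, and a lower number means a more potent inhibitor.
Calls come from curve class and fitted log AC50: scores 40-100 are active, 1-39 inconclusive (as here, weak, partial or poorly fitted curves), and 0 inactive.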

Values are in µM.
All entries here are filed as inconclusive.
Only part of the assay is shown, chiefly results filed as inconclusive.
Potencies fitted to partial, single-point or poorly fitting curves are rough.
Some entries filed as inconclusive have a full curve.
Activity scores are not listed here.

- CC1(C)OC2CC3C4CCC5=CC(=O)CCC5(C)C4(F)C(O)CC3(C)[C@]2(C(=O)CCl)O1 (stereo partly shown) : potency 89.13 µM (inhibitor, partial curve, poor fit)
- CSc1ccc2c(c1)N(CC[C@H]1CCCCN1C)c1ccccc1S2 : potency 35.48 µM (inhibitor, partial curve, poor fit)
- COc1ccc2c(c1)OCC(Cc1ccc(OC)c(OC(C)=O)c1)C2=O (stereo not shown) : potency 56.23 µM (inhibitor, partial curve, poor fit)
- N[C@@H](C(=O)O)c1cc(O)ccc1Cl : potency 39.81 µM (inhibitor, partial curve)
- CCCCC(=O)O[C@]1(C(=O)CO)CCC2C3CCC4=CC(=O)CCC4(C)C3C(O)CC21C (stereo partly shown) : potency 89.13 µM (inhibitor, partial curve, poor fit)
- CC1=C(C)C(=O)C(CCCCC#CCCCC#CCO)=C(C)C1=O : potency 79.43 µM (inhibitor, partial curve, poor fit)
- CCOC(=O)NNc1nncc2ccccc12 : potency 39.81 µM (inhibitor, partial curve, poor fit)
- COC(=O)CCC(C)C1CCC2C3C(O)C[C@@H]4CC(O)CC[C@@]4(C)C3CC(O)[C@]12C (stereo partly shown) : potency 31.62 µM (inhibitor, partial curve, poor fit)
- COc1ccccc1-c1ccc2ncnc(N(C)C)c2c1 : potency 56.23 µM (inhibitor, partial curve, poor fit)
- C=C(NC(=O)C(=C)NC(=O)c1csc(C2=NC3c4csc(n4)C4NC(=O)c5csc(n5)C(C(C)(O)C(C)O)NC(=O)C5CSC(=N5)C(=CC)NC(=O)C(C(C)O)NC(=O)c5csc(n5)C3(CC2)NC(=O)C(C)NC(=O)C(=C)NC(=O)C(C)NC(=O)C(C(C)CC)NC2C=Cc3c(C(C)O)cc(nc3C2O)C(=O)OC4C)n1)C(N)=O (stereo not shown) : potency 31.62 µM (inhibitor, full curve, poor fit)
- CC(C)c1c(CN(C)[C@@H](C)Cc2ccccc2)n(C)n(-c2ccccc2)c1=O : potency 31.62 µM (inhibitor, single point)
- Cc1cccc(CNc2ncnc3ccc(-c4ccccc4C#N)cc23)c1 : potency 50.12 µM (inhibitor, partial curve)
- CCCN(CCc1cccs1)[C@H]1CCc2c(O)cccc2C1 : potency 44.67 µM (inhibitor, partial curve)
- CC(=O)[C@@H]1CC[C@@H]2[C@@H]3CCC4=CC(=O)CC[C@@]4(C)[C@H]3CC[C@]21C : potency 35.48 µM (inhibitor, partial curve, poor fit)
- C[C@@H](NC(=O)/C(C#N)=C/c1ccc(O)c(O)c1)c1ccccc1 : potency 14.13 µM (inhibitor, partial curve)
- COc1ccc(C[C@H]2c3cc(OC)c(OC)cc3CCN2C)cc1OC : potency 15.85 µM (inhibitor, full curve)
- CC[C@H](c1ccc(O)cc1)[C@@H](CC)c1ccc(O)cc1 : potency 28.18 µM (inhibitor, partial curve)
- CCCN(CCC)c1c([N+](=O)[O-])cc(C(F)(F)F)cc1[N+](=O)[O-] : potency 28.18 µM (inhibitor, partial curve, poor fit)
- CCCCCCCCCOc1ccc2[nH]cc(CCN)c2c1 : potency 15.85 µM (inhibitor, full curve, poor fit)
- NC(=O)OC[C@H](O)COc1ccc(Cl)cc1 : potency 39.81 µM (inhibitor, single point)
- CN1Cc2ccccc2[C@@H]2c3cccc4[nH]cc(c34)C[C@H]21 : potency 56.23 µM (inhibitor, partial curve, poor fit)
- CCCCCCCCCCCCCCCCCCOC[C@H](COP(=O)([O-])OCC[N+](C)(C)C)OC : potency 6.702 µM (inhibitor, full curve)
- COc1ccc(-c2cc(=O)c3ccccc3o2)cc1OC : potency 89.13 µM (inhibitor, partial curve, poor fit)
- CC1OC(OCC2OC(Oc3c(-c4ccc(O)c(O)c4)oc4cc(O)cc(O)c4c3=O)C(O)C(O)C2O)[C@@H](O)C(O)C1O (stereo partly shown) : potency 79.43 µM (inhibitor, partial curve, poor fit)
- CN1[C@H]2CC(OC(=O)[C@@H](CO)c3ccccc3)C[C@H]1[C@H]1O[C@H]12 (stereo partly shown) : potency 39.81 µM (inhibitor, partial curve, poor fit)
- COc1cc(O)c(C(=O)/C=C/c2ccccc2)c(OC)c1 : potency 56.23 µM (inhibitor, partial curve)
- CC[C@H]1CN2CC[C@@H]1C[C@H]2[C@@H](O)c1ccnc2ccc(OC)cc12 : potency 39.81 µM (inhibitor, partial curve, poor fit)

Some entries from above, unchanged:

Compound,potency (µM),remark
CSc1ccc2c(c1)N(CC[C@H]1CCCCN1C)c1ccccc1S2,35.48,"inhibitor, partial curve, poor fit"
CC1(C)OC2CC3C4CCC5=CC(=O)CCC5(C)C4(F)C(O)CC3(C)[C@]2(C(=O)CCl)O1 (stereo partly shown),89.13,"inhibitor, partial curve, poor fit"